The assay has as its target T1, N-terminal FLAG-tagged EROS in RAW 264.7 macrophages (UniProt Q3TYS2).
T1 sequence: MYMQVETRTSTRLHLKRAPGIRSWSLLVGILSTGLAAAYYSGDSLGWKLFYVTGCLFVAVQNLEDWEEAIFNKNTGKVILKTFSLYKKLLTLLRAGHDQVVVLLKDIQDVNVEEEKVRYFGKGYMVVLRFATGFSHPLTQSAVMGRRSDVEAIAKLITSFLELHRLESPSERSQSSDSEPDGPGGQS
Nature of the assay: affinity purification with mass spectrometry; FLAG affinity purification from RAW 264.7 macrophages overexpressing FLAG-tagged EROS against untagged control cells, four biological replicates; elution with 3xFLAG peptide; LC-MS/MS; SAINTexpress, SP > 0.9 for high-confidence interactors.

Chains of the proteins cited; added tags and fusions are not shown. Residues count along the entry.
UniProt Q8C3J5: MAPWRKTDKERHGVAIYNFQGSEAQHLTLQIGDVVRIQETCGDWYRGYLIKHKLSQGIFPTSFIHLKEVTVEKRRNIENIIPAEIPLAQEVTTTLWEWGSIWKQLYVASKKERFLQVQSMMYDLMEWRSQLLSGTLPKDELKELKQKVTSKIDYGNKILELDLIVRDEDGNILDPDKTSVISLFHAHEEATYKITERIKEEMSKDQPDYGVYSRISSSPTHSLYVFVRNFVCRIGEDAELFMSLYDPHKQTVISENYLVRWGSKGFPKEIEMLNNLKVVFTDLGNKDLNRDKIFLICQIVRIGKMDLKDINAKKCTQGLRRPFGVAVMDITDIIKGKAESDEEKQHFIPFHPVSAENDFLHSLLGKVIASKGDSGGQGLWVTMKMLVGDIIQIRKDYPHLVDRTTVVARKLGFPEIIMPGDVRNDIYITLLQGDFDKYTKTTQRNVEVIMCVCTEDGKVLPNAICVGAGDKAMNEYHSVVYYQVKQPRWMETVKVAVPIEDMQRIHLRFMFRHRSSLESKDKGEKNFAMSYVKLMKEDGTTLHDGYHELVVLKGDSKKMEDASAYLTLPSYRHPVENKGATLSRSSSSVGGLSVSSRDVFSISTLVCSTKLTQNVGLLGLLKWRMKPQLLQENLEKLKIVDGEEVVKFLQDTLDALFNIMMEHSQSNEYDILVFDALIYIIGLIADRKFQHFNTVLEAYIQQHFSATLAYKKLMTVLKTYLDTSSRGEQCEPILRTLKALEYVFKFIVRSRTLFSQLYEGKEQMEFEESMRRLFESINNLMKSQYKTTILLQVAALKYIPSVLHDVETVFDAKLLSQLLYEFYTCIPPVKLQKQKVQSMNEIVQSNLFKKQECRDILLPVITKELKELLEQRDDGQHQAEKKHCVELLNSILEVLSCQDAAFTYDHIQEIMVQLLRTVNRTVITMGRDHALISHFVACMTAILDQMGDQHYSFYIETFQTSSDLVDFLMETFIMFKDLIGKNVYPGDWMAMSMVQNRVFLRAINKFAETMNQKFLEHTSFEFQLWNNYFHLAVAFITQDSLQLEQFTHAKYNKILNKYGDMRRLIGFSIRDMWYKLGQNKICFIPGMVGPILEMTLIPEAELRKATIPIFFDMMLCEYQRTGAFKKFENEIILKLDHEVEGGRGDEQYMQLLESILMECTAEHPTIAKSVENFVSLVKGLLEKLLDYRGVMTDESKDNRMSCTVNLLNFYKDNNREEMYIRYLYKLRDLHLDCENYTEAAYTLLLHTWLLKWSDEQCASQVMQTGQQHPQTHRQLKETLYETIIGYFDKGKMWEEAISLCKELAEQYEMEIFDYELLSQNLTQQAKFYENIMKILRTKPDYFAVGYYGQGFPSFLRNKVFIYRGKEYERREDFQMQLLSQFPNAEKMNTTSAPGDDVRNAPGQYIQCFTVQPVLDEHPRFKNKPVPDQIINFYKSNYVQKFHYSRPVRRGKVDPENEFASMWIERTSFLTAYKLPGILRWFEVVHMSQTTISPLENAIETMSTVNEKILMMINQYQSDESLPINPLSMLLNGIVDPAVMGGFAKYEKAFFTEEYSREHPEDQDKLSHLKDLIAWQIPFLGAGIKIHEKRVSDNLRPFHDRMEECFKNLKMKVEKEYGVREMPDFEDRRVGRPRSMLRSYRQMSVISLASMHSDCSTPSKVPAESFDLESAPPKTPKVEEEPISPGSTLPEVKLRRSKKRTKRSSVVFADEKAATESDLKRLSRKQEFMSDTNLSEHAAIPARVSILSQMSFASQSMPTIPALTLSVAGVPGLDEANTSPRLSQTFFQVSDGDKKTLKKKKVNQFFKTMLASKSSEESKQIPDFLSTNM
UniProt Q8BPU7: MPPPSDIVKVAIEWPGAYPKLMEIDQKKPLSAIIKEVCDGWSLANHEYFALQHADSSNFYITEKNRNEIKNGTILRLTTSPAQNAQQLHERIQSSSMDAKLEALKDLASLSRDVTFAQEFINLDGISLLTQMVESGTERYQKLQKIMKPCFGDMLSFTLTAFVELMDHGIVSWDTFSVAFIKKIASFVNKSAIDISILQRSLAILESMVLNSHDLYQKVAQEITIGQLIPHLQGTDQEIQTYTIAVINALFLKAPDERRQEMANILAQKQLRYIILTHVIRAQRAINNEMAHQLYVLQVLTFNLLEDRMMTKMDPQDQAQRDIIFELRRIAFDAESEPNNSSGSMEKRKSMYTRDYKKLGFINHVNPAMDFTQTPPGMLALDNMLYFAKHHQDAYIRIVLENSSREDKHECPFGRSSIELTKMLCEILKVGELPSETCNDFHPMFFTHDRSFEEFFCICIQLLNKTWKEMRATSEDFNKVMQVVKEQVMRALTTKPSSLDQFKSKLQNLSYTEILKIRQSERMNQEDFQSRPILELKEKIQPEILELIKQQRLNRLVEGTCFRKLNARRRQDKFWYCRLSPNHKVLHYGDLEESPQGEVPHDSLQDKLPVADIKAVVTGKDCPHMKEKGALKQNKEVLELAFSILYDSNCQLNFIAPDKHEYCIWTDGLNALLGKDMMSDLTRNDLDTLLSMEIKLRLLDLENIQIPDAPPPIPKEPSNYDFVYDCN
UniProt Q9Z1M0: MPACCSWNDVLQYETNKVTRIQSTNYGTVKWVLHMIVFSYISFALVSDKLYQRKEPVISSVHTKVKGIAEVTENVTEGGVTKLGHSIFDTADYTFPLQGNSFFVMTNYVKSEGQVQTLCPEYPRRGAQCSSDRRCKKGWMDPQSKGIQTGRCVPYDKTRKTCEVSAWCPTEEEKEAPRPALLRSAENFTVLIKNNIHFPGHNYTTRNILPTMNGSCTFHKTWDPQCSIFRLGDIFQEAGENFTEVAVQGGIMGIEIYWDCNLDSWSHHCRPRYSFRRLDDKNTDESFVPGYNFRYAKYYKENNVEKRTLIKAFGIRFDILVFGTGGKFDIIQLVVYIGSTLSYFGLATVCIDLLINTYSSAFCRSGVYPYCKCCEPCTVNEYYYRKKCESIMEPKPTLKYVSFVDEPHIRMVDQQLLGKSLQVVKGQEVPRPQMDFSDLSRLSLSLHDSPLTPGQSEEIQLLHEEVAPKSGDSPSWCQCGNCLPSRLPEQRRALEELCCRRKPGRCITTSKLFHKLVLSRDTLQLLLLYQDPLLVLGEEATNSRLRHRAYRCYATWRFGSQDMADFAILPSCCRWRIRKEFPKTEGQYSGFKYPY
UniProt Q9DBG6, residues 23-631: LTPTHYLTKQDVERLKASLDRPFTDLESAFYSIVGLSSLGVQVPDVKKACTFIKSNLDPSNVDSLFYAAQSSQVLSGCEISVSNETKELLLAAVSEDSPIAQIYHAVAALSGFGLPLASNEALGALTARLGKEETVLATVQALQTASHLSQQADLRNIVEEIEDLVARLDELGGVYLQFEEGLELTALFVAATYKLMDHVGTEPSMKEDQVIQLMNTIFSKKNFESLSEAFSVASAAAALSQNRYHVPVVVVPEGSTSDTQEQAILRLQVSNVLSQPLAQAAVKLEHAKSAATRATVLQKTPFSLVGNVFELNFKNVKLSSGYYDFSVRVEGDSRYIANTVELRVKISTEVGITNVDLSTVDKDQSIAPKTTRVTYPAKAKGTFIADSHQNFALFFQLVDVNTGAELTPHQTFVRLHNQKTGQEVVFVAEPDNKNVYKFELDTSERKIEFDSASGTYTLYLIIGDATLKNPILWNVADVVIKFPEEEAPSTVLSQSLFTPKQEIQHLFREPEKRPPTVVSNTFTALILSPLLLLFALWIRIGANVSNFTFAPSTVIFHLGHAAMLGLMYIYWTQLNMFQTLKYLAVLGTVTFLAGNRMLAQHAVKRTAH

Results are given in words; binding and its absence hold for the method and conditions named. In cells and extracts the contact can be indirect. These calls come from enrichment with a bait or labelling near it, and not all partners need be listed. Where a sequence is shown, tags or fusion partners need not be part of it.

In the case of “Dock2, endogenous in RAW 264.7 macrophages (from UniProt Q8C3J5 1-1828)”, the binding result was “binds”.

Consider “Elmo1, endogenous in RAW 264.7 macrophages (from UniProt Q8BPU7 1-727)”, for which the binding entry is “binds”.

“P2X7, endogenous in RAW 264.7 macrophages (from UniProt Q9Z1M0 1-595) (receptor)”: the binding entry was “binds”.

“ribophorin 2 (RPN2), endogenous in RAW 264.7 macrophages (from UniProt Q9DBG6 23-631)”: the binding result is reported as “binds”.

The values are drawn from paper PMC9767466.
